The test concerns the target HA-tagged ICN1 (UniProt P46531). The test can be described thus: anti-FLAG co-immunoprecipitation from co-transfected COS7 cell lysates, western blot with anti-HA.

Sequences of proteins named here, by UniProt entry; tags and fusion partners are left off. Residues count along the entry.
UniProt P46531, residues 1770-2555: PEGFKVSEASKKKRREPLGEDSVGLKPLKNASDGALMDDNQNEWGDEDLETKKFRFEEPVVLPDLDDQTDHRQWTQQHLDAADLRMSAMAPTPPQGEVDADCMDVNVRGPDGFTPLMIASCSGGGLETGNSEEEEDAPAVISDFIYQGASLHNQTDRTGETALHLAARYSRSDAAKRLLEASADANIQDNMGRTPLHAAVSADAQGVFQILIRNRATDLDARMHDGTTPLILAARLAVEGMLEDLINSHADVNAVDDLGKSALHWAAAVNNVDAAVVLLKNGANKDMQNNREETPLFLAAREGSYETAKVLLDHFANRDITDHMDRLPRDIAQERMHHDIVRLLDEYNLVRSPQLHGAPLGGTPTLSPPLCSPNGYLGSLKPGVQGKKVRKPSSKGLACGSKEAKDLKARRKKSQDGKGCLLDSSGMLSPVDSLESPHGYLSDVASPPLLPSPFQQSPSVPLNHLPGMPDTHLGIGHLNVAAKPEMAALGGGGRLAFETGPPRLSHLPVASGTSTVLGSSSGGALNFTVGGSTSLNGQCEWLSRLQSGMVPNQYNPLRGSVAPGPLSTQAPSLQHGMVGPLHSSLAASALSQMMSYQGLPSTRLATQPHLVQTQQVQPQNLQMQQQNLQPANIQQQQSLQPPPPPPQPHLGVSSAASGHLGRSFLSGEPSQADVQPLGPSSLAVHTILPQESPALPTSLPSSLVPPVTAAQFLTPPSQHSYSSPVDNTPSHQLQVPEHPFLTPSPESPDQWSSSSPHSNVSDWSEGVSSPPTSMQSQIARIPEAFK
UniProt Q8IZL2: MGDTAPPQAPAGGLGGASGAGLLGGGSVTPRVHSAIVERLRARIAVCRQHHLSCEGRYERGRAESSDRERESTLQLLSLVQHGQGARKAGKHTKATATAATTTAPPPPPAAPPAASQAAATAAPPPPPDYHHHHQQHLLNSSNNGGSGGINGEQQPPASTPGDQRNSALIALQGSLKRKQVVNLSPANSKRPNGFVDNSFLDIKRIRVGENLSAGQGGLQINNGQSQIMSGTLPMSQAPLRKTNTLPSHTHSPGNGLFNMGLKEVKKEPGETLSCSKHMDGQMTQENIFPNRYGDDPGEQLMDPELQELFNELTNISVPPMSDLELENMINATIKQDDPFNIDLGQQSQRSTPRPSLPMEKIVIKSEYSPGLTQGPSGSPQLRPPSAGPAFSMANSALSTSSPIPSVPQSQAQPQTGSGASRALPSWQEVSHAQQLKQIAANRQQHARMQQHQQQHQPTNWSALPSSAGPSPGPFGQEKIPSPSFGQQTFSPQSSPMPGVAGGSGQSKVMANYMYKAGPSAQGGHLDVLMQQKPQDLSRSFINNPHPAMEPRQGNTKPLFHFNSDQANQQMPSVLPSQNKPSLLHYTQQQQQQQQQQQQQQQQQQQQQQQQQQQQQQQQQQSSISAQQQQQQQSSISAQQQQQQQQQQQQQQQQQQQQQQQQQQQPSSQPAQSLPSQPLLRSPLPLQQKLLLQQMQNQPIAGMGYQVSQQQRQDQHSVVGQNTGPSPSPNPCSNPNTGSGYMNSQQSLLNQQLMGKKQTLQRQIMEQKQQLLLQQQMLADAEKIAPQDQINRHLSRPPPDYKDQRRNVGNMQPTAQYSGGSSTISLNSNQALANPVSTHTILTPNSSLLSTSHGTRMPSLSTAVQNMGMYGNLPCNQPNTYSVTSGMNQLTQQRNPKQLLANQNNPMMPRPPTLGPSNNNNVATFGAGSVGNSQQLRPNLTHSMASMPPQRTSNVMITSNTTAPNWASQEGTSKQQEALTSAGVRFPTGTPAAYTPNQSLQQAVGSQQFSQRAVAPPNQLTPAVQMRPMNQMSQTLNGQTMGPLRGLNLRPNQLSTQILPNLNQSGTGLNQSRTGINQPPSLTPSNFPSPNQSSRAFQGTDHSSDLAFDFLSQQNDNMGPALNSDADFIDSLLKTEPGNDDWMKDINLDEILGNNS

Drawing on patent US20040180349A1, this text covers binding for one substance.

No constants are given. Whether binding was seen depends on the method and setting. Binding seen in cells or lysates may run through a third protein. Some binding calls cover weakened binding; strength is not graded here.

As to “FLAG-tagged MAML2 (from UniProt Q8IZL2 1-1156)”, the binding entry was “binds”.
